According to PubChem BioAssay AID1671190 (National Center for Advancing Translational Sciences (NCATS), 2021):
The whole screen tested about 580,000 compounds, of which about 6,100 (1.1%) were called active. The shares of active, inactive and inconclusive entries below differ from those in the screen. Calls come from the whole dose curve; as a rule, active = well fitted inhibition curve with a large enough effect; inconclusive = small, poorly fitted or top-dose-only effect, or another doubt; inactive = no such curve, though single readings can be large or run the other way. Potencies of inconclusive entries are doubtful fits and often do not repeat.

The chains behind the UniProt entries cited, without tags or fusion partners. Where a name states a change or a piece, a line headed by the entry shows the natural chain unless it says otherwise.
UniProt P18054: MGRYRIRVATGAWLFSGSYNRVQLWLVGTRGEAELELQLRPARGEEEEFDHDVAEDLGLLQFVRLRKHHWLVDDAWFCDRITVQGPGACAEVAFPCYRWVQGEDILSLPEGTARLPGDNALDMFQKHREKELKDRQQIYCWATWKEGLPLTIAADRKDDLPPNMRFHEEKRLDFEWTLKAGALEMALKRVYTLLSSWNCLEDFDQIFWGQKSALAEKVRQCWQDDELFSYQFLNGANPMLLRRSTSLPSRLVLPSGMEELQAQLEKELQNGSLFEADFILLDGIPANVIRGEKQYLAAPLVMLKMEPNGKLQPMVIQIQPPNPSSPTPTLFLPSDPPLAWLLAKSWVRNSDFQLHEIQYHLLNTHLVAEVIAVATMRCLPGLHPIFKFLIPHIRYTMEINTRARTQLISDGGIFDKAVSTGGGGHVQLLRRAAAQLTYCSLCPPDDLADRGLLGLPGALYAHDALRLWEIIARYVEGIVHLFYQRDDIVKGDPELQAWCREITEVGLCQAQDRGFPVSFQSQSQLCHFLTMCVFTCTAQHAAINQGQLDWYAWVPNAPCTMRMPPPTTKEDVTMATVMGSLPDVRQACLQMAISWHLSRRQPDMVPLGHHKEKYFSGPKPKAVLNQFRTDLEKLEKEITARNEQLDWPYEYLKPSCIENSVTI

target: Polyunsaturated fatty acid lipoxygenase ALOX12 (Homo sapiens) (UniProt P18054); test: Primary qHTS assay for inhibitors of human arachidonate 12S-lipoxygenase (ALOX12): Round 2; settings: purified 12hLO, xylenol orange hydroperoxide absorbance; activity change, negative = inhibition: at 108 µM (top of the series) unless noted
Summary of the method: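 Hydroperoxide product was detected by ferrous iron/xylenol orange as the 573 to 405 nm absorbance ratio. Arachidonic acid at 40 uM (final) was turned over for 30 min at room temperature by 150 nM human 12hLO, pH 7.0 Hepes buffer, after 15 min compound preincubation.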
% is set by controls: 0 for no effect and ±100 for the full control effect; potency is the fitted concentration of half-maximal effect.

| Structure (SMILES) | Potency | activity change, negative = inhibition |
| --- | --- | --- |
| CCOC(=O)c1sc(NC(=O)C(CC)OC(=O)C(CC(C)C)NC(=O)c2ccccc2)nc1C (stereo not given) | inconclusive: 112 µM [inhibitor, partial curve, poor fit] | – |
| O=Cc1coc2ccc3ccccc3c2c1=O | – | inactive: -0.218% |
| O=[N+]([O-])c1ccccc1-c1ccc(C(=S)N2CCCC2)o1 | active: 39.8 µM | – |
| Cc1ccc2cc3cc(C(=O)NC4CCCCCC4)sc3nc2c1 | inconclusive: 141 µM [inhibitor, single point] | – |
| Nc1ccccc1C1CC1 | active: 7.08 µM | – |
| COC(=O)c1cc2ccccc2cc1OS(=O)(=O)c1ccc(C)cc1C | – | inactive: -34% |
| COc1ccc(-c2nc3ccccc3o2)cc1OC | inconclusive: 8.91 µM [inhibitor, full curve, poor fit] | – |
| COc1ccc(CCNC(=O)CN(c2cc([N+](=O)[O-])ccc2OC)S(C)(=O)=O)cc1 | inconclusive: 4.47 µM [inhibitor, full curve, poor fit] | – |
| CSc1nc2nc3c(cc2c(=O)n1-c1ccccc1C)CCCC3 | inconclusive: 79.4 µM [inhibitor, single point] | – |
| COc1ccc(NC(=O)N2CCCC(Cn3cnc4cccnc43)C2)c(C)c1 (stereo not given) | – | inactive: 37.1% |
| c1cncc(CNc2cc(-c3ccc4c(c3)OCO4)ncn2)c1 | inconclusive: 31.6 µM [inhibitor, partial curve, poor fit] | – |
| NC(=O)C1(N2CCCCC2)CCN(C(=O)c2ccc(C#Cc3ccccc3)o2)CC1 | inconclusive: 44.7 µM [inhibitor, partial curve, poor fit] | – |
| NC(=O)c1cccnc1NCc1cccc(C(F)(F)F)c1 | inconclusive: 141 µM [inhibitor, single point] | – |
| COc1ccc(CCNC(=O)CN2C(=O)NC3(CCc4ccccc43)C2=O)cc1 (stereo not given) | – | inactive: -12.8% |
| c1ccc(NN(Cc2cnccn2)c2ccccc2)cc1 | inconclusive: 56.2 µM [inhibitor, full curve, poor fit] | – |
| COc1ccccc1CNCC(=O)Nc1ccc(C(F)(F)F)cc1 | inconclusive: 1 µM [inhibitor, full curve, poor fit] | – |
| C=CCOc1c(Br)cc(/C=N/n2c(CC)n[nH]c2=S)cc1Br | – | inactive: -24.4% |
| O=C(CN1CCC(c2nc3ccccc3s2)CC1)C12CC3CC(CC(C3)C1)C2 | inconclusive: 2.82 µM [inhibitor, full curve] | – |
| CC(Nc1ccc(N)cc1Cl)c1ccccc1 (stereo not given) | inconclusive: 50.1 µM [inhibitor, partial curve, poor fit] | – |
| O=C(O)c1ccccc1N(c1ccccc1)c1ccccc1 | inconclusive: 89.1 µM [inhibitor, partial curve, poor fit] | – |

Copied from the list.
Potency with c1cncc(CNc2cc(-c3ccc4c(c3)OCO4)ncn2)c1 is entered as inconclusive: 31.6 µM [inhibitor, partial curve, poor fit]
Potency with COc1ccc(CCNC(=O)CN(c2cc([N+](=O)[O-])ccc2OC)S(C)(=O)=O)cc1 is entered as inconclusive: 4.47 µM [inhibitor, full curve, poor fit]
